About 3,700 (7%) of roughly 53,000 sequences were called active.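 How the source made its calls: active means gene knockdowns whose robust z-score for IL-1 alpha signal is at least 2 or at most -2, so actives lie on both sides; inactive means the rest.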 The list shows a part of the results.
Test: Components of the Cytosolic LPS Sensing Pathway: Gene Identification via Genome-wide siRNA Screen;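 further: robust z of the log signal after scaling to non-targeting control siRNA wells of the plate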
Conditions: RAW264.7 macrophages, IL-1a HTRF, actives lie on both sides, screened at 100 nM (by protocol), cells primed 5 h with Pam3CSK4 first
Procedure, shortened: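 Mouse macrophage line RAW264.7 is transfected with siRNA (100 nM final), grown 48h, primed with TLR ligand Pam3CSK4 5 h and given intracellular LipidA 24 h. IL-1a in supernatant is read by HTRF and viability by luminescence.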
For GCCCAAGGUGAAUCUGUCATT against Trarg1, the z-score was inactive: -1.37. In the case of GGAACAUGAAGACUAUACATT against Nek5, the z-score is reported as inactive: -0.905. In the case of CGACUUCAUGAAAUACCAATT against Hacd1, the z-score is reported as inactive: 0.456. For GGUGACACAGGAGAAGAAGTT against Colec10, the z-score was inactive: -0.00926. In the case of GACAUUGGGACCUUCGAGATT against Cnrip1, the z-score is reported as inactive: -0.169. For GGAAGAGCACAUCAUUGCATT against Dcpp1, the z-score was inactive: -0.181. In the case of CGGUUGGUGGCAAUAUCCUTT against Olfr279, the z-score is reported as inactive: -0.0648. For “GCCUUUCUCAUUCAGUCUCTT against Vmn1r239-ps”, the z-score was inactive: 0.472. With GAAGAGAACGCGUUUUUGGTT against Defa5 the z-score was inactive: 0.252. With GGGAUCAAUUGAGUGUAAUTT against Slc16a10 the z-score was inactive: 0.00951. For GCUAACAUUUUAAUGGCCCTT against Pnoc, the z-score was inactive: 0.233. With GGCUUCAUUUCUUGAUGAUTT against Cenpc1 the z-score was inactive: -1.2. With GGAGAAGAUUGUCAACAUUTT against Cyp1a2 the z-score was inactive: 0.65. For GGCCUUUGUAGUAUCCCAGTT against Nudt16, the z-score was inactive: -0.709. In the case of GGUGGAAUAUAGCUUCAUCTT against Ifngr2, the z-score is reported as inactive: 1.06. In the case of GCAUGUGAUUUCAGGUUGATT against Echdc1, the z-score is reported as inactive: -0.319. In the case of GCGAGCUGUACCUUUCUAGTT against Lmo3, the z-score is reported as inactive: -0.721. With GGACAUAGUCCUUUUUGUUTT against Myod1 the z-score was inactive: -0.788. For GGAUUUCCCAUCAAAGACGTT against Serpinf2, the z-score was inactive: 0.155. In the case of GCUGAUUACCUCAGCAGAUTT against Prkd3, the z-score is reported as inactive: -1.48. With GGGUGUCGUUCUGGUUUGUTT against Cltrn the z-score was inactive: 0.417. For GGCGCAUUAGCAGAGACUGTT against Mrps5, the z-score was active: 4.17. With GCCACUACUACAUCAAUGUTT against Mall the z-score was inactive: 1.24. For GCAGAAUGCUCACGUGGAUTT against Zfp532, the z-score was inactive: 0.928. With GGGCUGCUCACAAUUUAUATT against Tmem135 the z-score was inactive: 1.17. In the case of GGAAUUGUGCUGAAAAAGATT against Smim7, the z-score is reported as inactive: -0.66. For “GGAGCUCUCUAUUUAGUUATT against E130114P18Rik”, the z-score was inactive: 0.558. With GGCAGAAAUUUGGAUACCATT against Plekha4 the z-score was active: 2.1. In the case of GGUCUACUUUAGACAACUUTT against Sdc1, the z-score is reported as inactive: 0.373. With GGUGGAGAUAAAAAGAGAGTT against Hnrnpu the z-score was inactive: -1.07. With GGAAUAUACGAGAAAACCUTT against Epha7 the z-score was inactive: -0.382. For GGAAUACAUUCCUUUUAAGTT against Gpx3, the z-score was inactive: -1.27. In the case of GGAAGGAGAUAUUGUGUUUTT against Sh3rf1, the z-score is reported as inactive: -0.377. For GGAAGACCUUGUGUUUGCATT against Mmp13, the z-score was inactive: -0.692. In the case of GCAAUUGAAAGUGAACAAUTT against Olfr1360, the z-score is reported as inactive: -0.935. For GGAACUUUCAGAAUCAAUGTT against Cdh13, the z-score was inactive: 1.77. For GGUGAUCCUUAUGCUGUUATT against Ehmt2, the z-score was inactive: 0.305. For GGACAGCUGUUUCAAUUCUTT against Il1rap, the z-score was inactive: -0.162. In the case of GGAUGCUUGUGAAUAUGCUTT against Olfr346, the z-score is reported as inactive: -0.512. With GGAUUUCAGCGAAGUGUACTT against Mapk11 the z-score was inactive: -0.395. With GAUCCUCUCUAGUACUUGATT against Ldoc1 the z-score was inactive: 0.0278. In the case of GGGAGAAGAGGAACAGUUCTT against Slc25a17, the z-score is reported as inactive: -0.135. In the case of GGAUGUACUUAACUGUAAGTT against Dmac1, the z-score is reported as inactive: 1.6. For “GGAAUAUGGAAGGAAGAGUTT against E130311K13Rik”, the z-score was inactive: 0.782. In the case of GGUCUUGCAUGUCUCUGAGTT against Lrrc47, the z-score is reported as inactive: -1.45. With GGCCCUCAUCUUUGUGUCCTT against Mgll the z-score was inactive: -1.52. With GGCUGUGAAUGGAUGGAGGTT against Shpk the z-score was inactive: -0.908. With GGACCCGAAAAUAAUAUAGTT against Rasgef1b the z-score was inactive: 0.816. For GGAGUUUCGGGAGUUCAACTT against Kdm4c, the z-score was inactive: 0.87. With GGUAGUGUCCCUGUAUUCCTT against Bok the z-score was inactive: 0.14. For GGGAUGUGAAAUGCACCUUTT against Rftn1, the z-score was inactive: -1.03. With GGAGUUUUACCAGAAGCUGTT against Hs1bp3 the z-score was inactive: -0.438. For GGUCUCUUUCCUAUCCAUUTT against Casr, the z-score was inactive: -1.11. In the case of CAUGAUCGAUACCAUCACATT against Adcy1, the z-score is reported as inactive: -0.858. In the case of GGCGUGUGUAAUAAUUUCCTT against Haus4, the z-score is reported as inactive: -0.241. With CCUUCUGUAGUUGGAAUCATT against Them5 the z-score was inactive: 1.41. With GGGAAGACAUGUGAAAAUGTT against Slc17a1 the z-score was inactive: 0.121. In the case of GGAACAAAGGAUGAUAAUUTT against Pbrm1, the z-score is reported as inactive: -0.684. With GGAGUCAGUACUGUAAAAUTT against Rin2 the z-score was inactive: -1.91. With GGAAUUGAGUAGCAGCUGATT against Polr2j the z-score was inactive: -0.426. For GGAUGUGAGGUGCACCAGATT against Trpv6, the z-score was inactive: -0.833. In the case of GGAAACAUAAGCAAAAACUTT against Vipr2, the z-score is reported as inactive: 0.092. For CGAGGUCUAUGAGGUAGACTT against Tekt3, the z-score was inactive: 0.0946. For GGUCAUUGCUUCCUAUGGCTT against Mgat1, the z-score was inactive: -0.754. In the case of GCUGUAAGCCAAUUAACAUTT against Emp1, the z-score is reported as inactive: 1.06. In the case of GCCUUAGAACUCCUCAUUCTT against Apoo, the z-score is reported as inactive: -1.01. For GGCAAGAUGAAUUAAAAUGTT against Gcfc2, the z-score was inactive: -0.964. In the case of GGCCAACCUGGAGAACUUGTT against Atp6v1c2, the z-score is reported as inactive: 0.441. For GGUUUUUACCUACACUUGUTT against Rdh10, the z-score was inactive: -0.561. In the case of CGAUGAAAACUACUCGGCATT against Runx1, the z-score is reported as inactive: 1.49. With GGACCAAAAUCUAGAAUACTT against Zfp629 the z-score was inactive: -0.898. For GACAGAAAUAUAGACUCGATT against Ppp1r42, the z-score was active: -2.45. With CGAACGAUUGAAGAUUUCUTT against Nat3 the z-score was active: 2.81. In the case of GGAUCAUCUCUUUGGGCUGTT against Tmem37, the z-score is reported as inactive: 0.127. In the case of GCUUAUCCGCCAUCAAAGATT against Zfp3, the z-score is reported as inactive: 1.69. For GGCUUCUCCAAAGCUUUAGTT against Dkkl1, the z-score was inactive: -1.15. For CGUAUUUCACAAAUACGGATT against Sohlh2, the z-score was inactive: 0.215. With CGCAAGGAAAAAAAGUAAGTT against Slc16a13 the z-score was inactive: 0.93. In the case of GGACACCUACCAAAAGUUATT against Cd9, the z-score is reported as inactive: 0.432. For GGUUGCAGAUUUCCGAAGATT against Ficd, the z-score was inactive: 0.0659. With GGCCCUUUAUUCUUAAAAGTT against Gpr88 the z-score was inactive: 0.267. With GGCAUACUACACAAAGCAGTT against Tssk4 the z-score was inactive: -1.23. For GGAAGAGCAACUGCUACAATT against Rnase1, the z-score was inactive: -1.98. For CCAAACCUAUUCUGAGAUGTT against Klrg2, the z-score was inactive: -0.0403. In the case of GGAGUAGGAACAAAAAUUGTT against Polb, the z-score is reported as inactive: -0.153. With GCCGGUUUACUGCCUAAAATT against Snx32 the z-score was inactive: 0.669. With CGAAGAGUUUAAGUCCAUGTT against Bnip1 the z-score was inactive: 0.145. With GGAGAAGCAGUUUCUGAAUTT against Bsn the z-score was inactive: 1.38. With GGAUUUCAAAAACCACGUGTT against Snx1 the z-score was inactive: 1.14. For GCUAUACAUCGAGUUUGUCTT against Mlec, the z-score was inactive: 0.298. With GCCAGAGCGGAUUAUUGGATT against Cbx1 the z-score was inactive: -1.19. For GGAAGAAAGCCAUUUGCUUTT against Nol9, the z-score was inactive: 1.71. For GGGAACAAGGUCAUCUCCUTT against Olfr1444, the z-score was inactive: 1.05. In the case of GGAGACCUGAUUCCAGGCATT against Zfa-ps, the z-score is reported as inactive: -0.719. With CCUCACUUAACCAUACAUGTT against Rnd3 the z-score was inactive: 0.508. With GGGUUCUCUACCUCAUCCUTT against Uts2r the z-score was inactive: -0.387. With GGAAAACAUACCAUGUAUGTT against Zfp322a the z-score was inactive: -0.38. In the case of CGACGAGGAAUAACCUCUCTT against Myh6, the z-score is reported as active: 2.05. With GGCUUCUGUGGGAAUCACATT against Ednrb the z-score was inactive: -0.657. With GGAGAAUGAGUGGUAUCUGTT against Msh2 the z-score was inactive: -1.48. With GGCUUACCUUAUUGUGAUCTT against Psen2 the z-score was inactive: -0.795. With GCCACAAUACUUCCAGCAATT against Tnr the z-score was inactive: -0.567. For GGCUUACGAUGAAAAUAAATT against Lca5, the z-score was inactive: -1.94. In the case of CCUCUAUGGUCUGCCUCAUTT against Spint2, the z-score is reported as inactive: 0.0672. For GCUUACCUUGUUCUUAAAGTT against D2hgdh, the z-score was inactive: -1.62. For CCUACGCAGCAUGUGUGAATT against Exosc4, the z-score was inactive: -0.13. With GGGCCUGUACAUCUUCCAATT against Anpep the z-score was inactive: 0.926.

From PubChem BioAssay AID1508600 (Functional Genomics Laboratory (NCATS/FGL), 2020)
